Earlier results on 1 molecule are cited in article PMC8044178, “Structural basis of norepinephrine recognition and transport inhibition in neurotransmitter transporters” (Nature Communications, 2021).

Where two headings read alike, the source gives them in different places.

Data set [1] deals with hNET. The note with it: cited from earlier work.
The subject of data set [2] is hDAT. To be noted: cited from earlier work.
Data set [3] concerns the target hNET. The note with it: read-out: Binding Inhibition (Ki), hNET; vs. desipramine; ref 2 (Supplementary: Sagata et al., 2002); cited from earlier work.

In the case of `COc1cccc(C2(O)CCCCC2CN(C)C)c1` (centres unmarked) [Tramadol, tramadol], the IC50 was 2000 nM in data set [1] (read-out: IC50, inhibition of hNET); about 100 µM in data set [2] (read-out: IC50, inhibition of hDAT); 100 µM in data set [2] (read-out: Uptake Inhibition IC50, hDAT, ref 5 (Supplementary: Rickli et al., 2018)). Moreover, the Ki in data set [1] (ref 2 (Supplementary: Sagata et al., 2002), read-out: Uptake Inhibition Ki, hNET) was 19.7 µM; in data set [3], 11.2 µM.

A word on the IC50: it is the concentration needed to halve the response being measured. What is called Ki is the equilibrium dissociation constant of an inhibitor or competing ligand from its target.
